Source: US20210040153A1, “OLIGOPEPTIDE HAVING DENGUE VIRUS REPLICATION INHIBITION FUNCTION AND APPLICATION THEREOF” (priority 2018, published 2021)
Part of at least one peptide drawing is inferred or uncertain, most often the ends. Where a SMILES comes first, the peptide text is derived from it. Bridges are numbered along the chain shown (N, C = ends).

Key:
dengue virus [1] = assay: inhibition of dengue virus replication (serotype not given); format: cell-based; conditions: serotype not stated
dengue virus [2] = assay: protective effect of the synthesized peptide on dengue virus-infected C6/36 cells (cell lesions); format: cell-based; conditions: for number of wells of cells that have lesions: 12 wells; for number of wells of cells that have lesions / degree of cell lesion: infected C6/36 cells, observed for 4 days
[3] = 5 μL/well of peptide solution, 5th row
[4] = 10 μL/well of peptide solution, 6th row
[5] = 20 μL/well of peptide solution, 7th row
[6] = 40 μL/well of peptide solution, 8th row

N=C(N)NCCC[C@@H]1NC(=O)[C@H](Cc2c[nH]cn2)NC(=O)[C@H](Cc2c[nH]cn2)NC(=O)CNC(=O)[C@H](Cc2c[nH]cn2)NC(=O)[C@H](CCCCN)NC(=O)[C@@H](N)CSSC[C@@H](C(=O)O)NC(=O)[C@H](Cc2c[nH]cn2)NC1=O [synthesized peptide, CKHGHHRHC] (H-CKHGHHRHC-OH; disulfide 1-9) was tested, and the “inhibitory effect on dengue virus replication” value (dengue virus [1]) was “enhanced effect”, the “number of wells of cells that have lesions” value (“number” for short) (dengue virus [2]; [3]) was 12 wells and the “degree of cell lesion” value (dengue virus [2]; [3]) was “II to III”. The “number” value (dengue virus [2]; [4]) was 9 wells, the “degree of cell lesion” value (dengue virus [2]; [4]) was “I to II” and the “number” value (dengue virus [2]; [5]) was 6 wells. For the same compound, the “degree of cell lesion” value (dengue virus [2]; [5]) was “I to II”, the “number” value (dengue virus [2]; [6]) was 3 wells and the “outcome of lesioned wells on continued culture” value (dengue virus [2]; 40 μL/well of peptide solution, 8th row, continued culture) was “return to normality”. The “degree of cell lesion” value (dengue virus [2]; [6]) was “I (I, 0 to 25% of the cells have lesions)” and the “protective effect on cells against virus infection” value (dengue virus [2]; dengue virus-infected cells, peptide added in a concentration gradient, dose-effect relationship) was “significant protective effect”.
